Results deposited as PubChem BioAssay AID652272 (Drosophila RNAi Screening Center, 2013)
The deposit covers about 21,000 reagents; shown is a random part of those that have a named target and a result. Over the whole deposit, 503 (2.4%) were called active. 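Raw plate light values, not normalised; calls rest on replicate z-scores that were not deposited; hits include reporter decreases as well as increases.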 Reagents against one gene are numbered here. A plus sign joins genes that one reagent is predicted to hit. Not stated in the record: the amount of reagent, the time to read-out.

Aim: 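Finding fly genes that regulate Hedgehog signal transduction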 (primary screen)
System: Drosophila clone 8 (Cl8) cells
Reagent: long dsRNA against Drosophila genes
Read-out: 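Plate reader light from a firefly reporter under a ptc promoter fragment that responds to Hedgehog, with Renilla light as transfection reference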
Reading the numbers: firefly Hh reporter signal: higher = more ptc reporter light; Renilla reference signal: higher = more Renilla control light
Rule for the call: 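Hit when the z-score averaged over two replicates is under -2 or over +3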
Meaning of the calls: active = hit: reporter lowered or raised; inactive = not a hit

| Gene | reagent | firefly Hh reporter signal, replicate 1 | firefly Hh reporter signal, replicate 2 | firefly Hh reporter signal, replicate 3 | Renilla reference signal, replicate 1 | Renilla reference signal, replicate 2 | Outcome |
| --- | --- | --- | --- | --- | --- | --- | --- |
| msd5 | 1 | 50432 | 31938 | – | 2296 | 2404 | inactive |
| bdl | 1 | 1.04e5 | 44976 | – | 5434 | 2459 | inactive |
| coro | 1 | 1.30e5 | 1.12e5 | – | 5792 | 4359 | inactive |
| mEFTu1 | 1 | 1.60e5 | 98888 | – | 6074 | 4021 | inactive |
| trsn | 1 | 87117 | 32999 | – | 2560 | 3689 | inactive |
| Smurf | 1 | 82224 | 42599 | – | 2117 | 3045 | inactive |
| APC4 | 1 | 1.07e5 | 1.02e5 | – | 2907 | 2336 | inactive |
| tbrd-1 | 1 | 3.80e5 | 77611 | – | 19218 | 2726 | inactive |
| Pex11c | 1 | 6.56e5 | 97283 | – | 30930 | 3187 | inactive |
| CG17005 | 1 | 66115 | 49962 | – | 2504 | 4755 | inactive |
| pasi2 | 1 | 1.03e5 | 1.13e5 | – | 3357 | 3017 | inactive |
| ced-6 | 1 | 1.85e5 | 75320 | – | 4728 | 5808 | inactive |
| CG11357 | 1 | 26912 | 46137 | – | 3211 | 4016 | inactive |
| G9a | 1 | 82771 | 2.40e5 | – | 2059 | 9026 | inactive |
| CG34354 | 1 | 44246 | 2.15e5 | – | 10489 | 5866 | inactive |
| CG34354 | 2 | 80140 | 24320 | – | 3010 | 1051 | inactive |
| CG34354 | 3 | 35508 | 21892 | – | 1814 | 1312 | active |
| CG34354 | 4 | 84434 | 1.00e5 | – | 2976 | 3009 | inactive |
| CG12991 | 1 | 67767 | 1.90e5 | – | 1700 | 7769 | inactive |
| dj | 1 | 1.04e5 | 97702 | – | 4277 | 3187 | inactive |
| asl | 1 | 1.19e5 | 1.04e5 | – | 5776 | 4652 | inactive |
| CG9705 | 1 | 1.89e5 | 1.09e5 | – | 7515 | 4817 | inactive |
| SMC5 | 1 | 1.24e5 | 1.32e5 | – | 4536 | 4688 | inactive |
| Liprin-gamma | 1 | 5.83e5 | 89571 | – | 3901 | 3901 | inactive |
| l(2)34Fc | 1 | 1.24e5 | 54960 | – | 3040 | 5479 | inactive |
| feo | 1 | 5.56e5 | 78954 | – | 3334 | 3334 | inactive |
| lectin-46Ca | 1 | 90581 | 7.53e5 | 79450 | 3437 | 41593 | inactive |
| sle | 1 | 86162 | 67232 | – | 3378 | 2916 | inactive |
| Psf1 | 1 | 1.28e5 | 3.94e5 | 1.18e5 | 6087 | 25660 | inactive |
| List | 1 | 95138 | 47571 | – | 2468 | 3808 | inactive |
| CG18563 | 1 | 92744 | 67232 | – | 2457 | 5702 | inactive |
| CG34011 | 1 | 4.12e5 | 1.61e5 | – | 20587 | 7219 | inactive |
| Sytbeta | 1 | 1.48e5 | – | – | 6569 | 4080 | inactive |
| Sytbeta | 2 | 1.03e5 | – | – | 1654 | 2609 | inactive |
| Zaf1 | 1 | 73655 | 1.12e5 | – | 2192 | 6020 | inactive |
| CG42814 | 1 | 80465 | 83677 | – | 2636 | 1965 | inactive |
| CG9130 + CG9133 | 1 | 1.28e5 | 7.66e5 | 64801 | 4386 | 47285 | inactive |
| CG9130 + CG9133 | 2 | 1.28e5 | 1.20e5 | – | 5767 | 5040 | inactive |
| CG30089 | 1 | 1.29e5 | 1.06e5 | – | 5915 | 4278 | inactive |
| CG30089 | 2 | 56007 | 11281 | – | 1221 | 97 | inactive |
| CG30089 | 3 | 1.71e5 | 52035 | – | 4016 | 1152 | inactive |
| CG30089 | 4 | 6.18e5 | 96144 | – | 4155 | 4155 | inactive |
| pkm | 1 | 1.39e5 | 1.04e5 | – | 3232 | 2621 | inactive |
| maf-S | 1 | 88400 | 52837 | – | 3200 | 3868 | inactive |
| LIMK1 | 1 | 1.01e5 | 76057 | – | 2480 | 2032 | inactive |
| CG12398 | 1 | 72664 | 37731 | – | 4802 | 1272 | inactive |
| CG12105 | 1 | 78389 | 75280 | – | 3585 | 3536 | inactive |
| Gr94a | 1 | 43475 | 1.71e5 | – | 8861 | 3638 | inactive |
| CG11898 | 1 | 1.40e5 | 1.63e5 | – | 3552 | 4540 | inactive |
| Rim | 1 | 5.24e5 | 1.00e5 | – | 23944 | 2038 | inactive |
| Rim | 2 | 1.72e5 | 28989 | – | 14600 | 1216 | active |
| Rim | 3 | 1.23e5 | 74160 | – | 5060 | 2909 | inactive |
| Rim | 4 | 6.73e5 | 1.30e5 | – | 39627 | 3760 | inactive |
| Idgf3 | 1 | 65025 | 26032 | – | 2791 | 1227 | inactive |
| CG4218 | 1 | 1.58e5 | 64842 | – | 3696 | 5860 | inactive |
| CG9331 | 1 | 1.48e5 | 1.05e5 | – | 4796 | 3991 | inactive |
| CG1354 | 1 | 58969 | 1.67e5 | – | 2173 | 6051 | inactive |

Look-ups from the list.
CG34354 #2, Renilla reference signal, replicate 1 → 3010
CG34011, Renilla reference signal, replicate 1 = 20587
Under “firefly Hh reporter signal, replicate 1”, tbrd-1 shows 3.80e5
For “Outcome”, G9a shows inactive
For “Renilla reference signal, replicate 2”, ced-6 is entered as 5808
Gr94a, firefly Hh reporter signal, replicate 2 = 1.71e5
